Values of other authors as cited in patent publication US20050164987A1, “Melatonin combination therapy for improving sleep quality” (priority 2003, published 2005).
For at least one compound, name, drawing or mass did not settle the structure.

System: mice
Details: reference agents; scores below 40 denote behavioral depression

SMILES	ED100 [mg/kg]
CNC1=Nc2ccc(Cl)cc2C(c2ccccc2)=[N+]([O-])C1 [chlordiazepoxide]	100
CN1CCN(C2=Nc3cc(Cl)ccc3Nc3ccccc32)CC1 [clozapine]	25
